Among the data in paper PMC12255723 are binding values, retold here.

Sequences of proteins named here, by UniProt entry; tags and fusion partners are left off.
UniProt P17844: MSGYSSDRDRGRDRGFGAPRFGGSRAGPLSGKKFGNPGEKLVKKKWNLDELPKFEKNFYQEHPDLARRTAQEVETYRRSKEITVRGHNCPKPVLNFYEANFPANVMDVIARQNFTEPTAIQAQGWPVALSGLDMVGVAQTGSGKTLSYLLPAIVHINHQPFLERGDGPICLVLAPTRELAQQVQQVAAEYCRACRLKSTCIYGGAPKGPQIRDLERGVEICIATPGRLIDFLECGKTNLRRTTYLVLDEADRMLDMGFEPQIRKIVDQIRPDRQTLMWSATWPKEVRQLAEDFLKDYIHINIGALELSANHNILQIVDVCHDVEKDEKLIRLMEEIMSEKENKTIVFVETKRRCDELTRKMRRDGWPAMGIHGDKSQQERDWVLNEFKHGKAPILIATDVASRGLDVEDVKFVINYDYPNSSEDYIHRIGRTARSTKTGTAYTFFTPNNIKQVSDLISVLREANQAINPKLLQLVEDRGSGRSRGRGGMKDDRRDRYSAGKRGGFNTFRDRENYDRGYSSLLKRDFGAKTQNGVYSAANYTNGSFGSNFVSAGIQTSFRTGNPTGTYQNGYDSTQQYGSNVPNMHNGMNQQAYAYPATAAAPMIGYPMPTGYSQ

Results are given in words; binding and its absence hold for the method and conditions named. Binding seen in cells or lysates may run through a third protein. Some entries that bind do so weakly or less than the wild type. Tags and fused reporters may be left off the sequences shown.

The assay deals with T1, OTUD6B-Flag (UniProt Q8N6M0).
T1 sequence: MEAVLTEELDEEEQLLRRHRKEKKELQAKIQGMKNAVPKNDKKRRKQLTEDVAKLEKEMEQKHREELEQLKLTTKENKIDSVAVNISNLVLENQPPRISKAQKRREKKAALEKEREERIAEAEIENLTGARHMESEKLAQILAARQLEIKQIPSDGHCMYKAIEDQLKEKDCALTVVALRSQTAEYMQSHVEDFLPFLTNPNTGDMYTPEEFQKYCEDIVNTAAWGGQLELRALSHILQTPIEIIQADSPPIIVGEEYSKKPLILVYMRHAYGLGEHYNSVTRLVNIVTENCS
Briefly: co-IP; HCT116 cells transfected with the plasmids for 48 h; lysed in IP buffer (20 mM Tris, 150 mM NaCl, 1 mM EDTA, 1% Triton X-100); Flag or Myc antibody and agarose beads overnight at 4 °C; Western blot. Background: Immunoblotting shows a protein as a band on a membrane.

Regarding “DDX5-Myc (from UniProt P17844 1-614) (enzyme)”, the binding entry was “binds”.
